Data as given in the supplement of paper PMC10849652.
This is one part of the list.

Protein sequences, listed by entry. Tags and fused reporters are not part of them. Lines headed by an entry give the natural chain unless they say otherwise; changes in a name come on top.
UniProt P15056, whole entry, looked up: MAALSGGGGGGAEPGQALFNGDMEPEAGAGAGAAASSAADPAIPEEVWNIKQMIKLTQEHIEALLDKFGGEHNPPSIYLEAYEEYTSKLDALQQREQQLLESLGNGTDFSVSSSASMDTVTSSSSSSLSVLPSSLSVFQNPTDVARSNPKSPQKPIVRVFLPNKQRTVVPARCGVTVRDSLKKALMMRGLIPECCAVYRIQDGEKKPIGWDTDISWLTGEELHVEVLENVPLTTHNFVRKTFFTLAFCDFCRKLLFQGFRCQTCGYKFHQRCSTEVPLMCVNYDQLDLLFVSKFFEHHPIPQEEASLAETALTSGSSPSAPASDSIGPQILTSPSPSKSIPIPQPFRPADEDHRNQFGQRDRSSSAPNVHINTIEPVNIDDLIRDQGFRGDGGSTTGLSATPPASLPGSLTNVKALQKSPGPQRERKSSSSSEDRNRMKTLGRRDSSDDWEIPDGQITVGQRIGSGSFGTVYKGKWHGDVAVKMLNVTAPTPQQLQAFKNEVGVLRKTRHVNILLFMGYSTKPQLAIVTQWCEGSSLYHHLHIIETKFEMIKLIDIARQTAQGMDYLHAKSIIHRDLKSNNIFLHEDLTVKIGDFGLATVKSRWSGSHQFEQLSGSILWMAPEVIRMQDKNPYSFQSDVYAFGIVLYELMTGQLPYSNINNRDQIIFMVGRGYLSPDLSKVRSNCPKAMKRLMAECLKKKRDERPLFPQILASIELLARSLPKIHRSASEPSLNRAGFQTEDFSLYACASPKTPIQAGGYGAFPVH
UniProt O60513: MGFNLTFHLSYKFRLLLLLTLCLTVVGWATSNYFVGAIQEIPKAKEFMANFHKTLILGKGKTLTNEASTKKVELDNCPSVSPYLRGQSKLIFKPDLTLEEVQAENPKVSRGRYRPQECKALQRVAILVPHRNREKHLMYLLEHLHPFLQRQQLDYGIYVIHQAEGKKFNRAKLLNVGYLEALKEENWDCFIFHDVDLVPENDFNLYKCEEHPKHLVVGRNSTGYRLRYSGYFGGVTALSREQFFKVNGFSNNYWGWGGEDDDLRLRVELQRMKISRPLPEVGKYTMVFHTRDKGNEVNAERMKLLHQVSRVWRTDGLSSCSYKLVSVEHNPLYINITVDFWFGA
UniProt Q9BUT1: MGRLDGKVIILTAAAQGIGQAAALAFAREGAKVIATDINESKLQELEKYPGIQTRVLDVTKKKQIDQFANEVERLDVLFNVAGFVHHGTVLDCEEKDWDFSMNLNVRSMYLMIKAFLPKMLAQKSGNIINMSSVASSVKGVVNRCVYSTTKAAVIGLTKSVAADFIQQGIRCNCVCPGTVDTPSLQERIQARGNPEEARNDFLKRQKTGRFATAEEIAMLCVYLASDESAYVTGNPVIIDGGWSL
UniProt Q6PGQ7, whole entry, looked up: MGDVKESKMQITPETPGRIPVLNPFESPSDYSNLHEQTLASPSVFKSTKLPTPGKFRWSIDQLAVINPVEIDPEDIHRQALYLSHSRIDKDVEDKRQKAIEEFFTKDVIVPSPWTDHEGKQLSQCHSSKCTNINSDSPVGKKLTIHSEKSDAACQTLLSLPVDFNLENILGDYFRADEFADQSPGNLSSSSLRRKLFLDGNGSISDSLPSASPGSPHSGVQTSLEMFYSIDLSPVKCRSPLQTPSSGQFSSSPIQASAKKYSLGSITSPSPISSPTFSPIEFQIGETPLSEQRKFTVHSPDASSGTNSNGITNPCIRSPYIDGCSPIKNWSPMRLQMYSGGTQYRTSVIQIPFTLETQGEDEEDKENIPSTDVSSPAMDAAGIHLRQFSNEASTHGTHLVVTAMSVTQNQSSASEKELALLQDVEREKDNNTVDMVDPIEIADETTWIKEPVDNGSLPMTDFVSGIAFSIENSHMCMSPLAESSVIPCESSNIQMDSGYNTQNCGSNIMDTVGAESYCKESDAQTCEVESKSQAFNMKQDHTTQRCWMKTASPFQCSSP
UniProt P38398, whole entry, looked up: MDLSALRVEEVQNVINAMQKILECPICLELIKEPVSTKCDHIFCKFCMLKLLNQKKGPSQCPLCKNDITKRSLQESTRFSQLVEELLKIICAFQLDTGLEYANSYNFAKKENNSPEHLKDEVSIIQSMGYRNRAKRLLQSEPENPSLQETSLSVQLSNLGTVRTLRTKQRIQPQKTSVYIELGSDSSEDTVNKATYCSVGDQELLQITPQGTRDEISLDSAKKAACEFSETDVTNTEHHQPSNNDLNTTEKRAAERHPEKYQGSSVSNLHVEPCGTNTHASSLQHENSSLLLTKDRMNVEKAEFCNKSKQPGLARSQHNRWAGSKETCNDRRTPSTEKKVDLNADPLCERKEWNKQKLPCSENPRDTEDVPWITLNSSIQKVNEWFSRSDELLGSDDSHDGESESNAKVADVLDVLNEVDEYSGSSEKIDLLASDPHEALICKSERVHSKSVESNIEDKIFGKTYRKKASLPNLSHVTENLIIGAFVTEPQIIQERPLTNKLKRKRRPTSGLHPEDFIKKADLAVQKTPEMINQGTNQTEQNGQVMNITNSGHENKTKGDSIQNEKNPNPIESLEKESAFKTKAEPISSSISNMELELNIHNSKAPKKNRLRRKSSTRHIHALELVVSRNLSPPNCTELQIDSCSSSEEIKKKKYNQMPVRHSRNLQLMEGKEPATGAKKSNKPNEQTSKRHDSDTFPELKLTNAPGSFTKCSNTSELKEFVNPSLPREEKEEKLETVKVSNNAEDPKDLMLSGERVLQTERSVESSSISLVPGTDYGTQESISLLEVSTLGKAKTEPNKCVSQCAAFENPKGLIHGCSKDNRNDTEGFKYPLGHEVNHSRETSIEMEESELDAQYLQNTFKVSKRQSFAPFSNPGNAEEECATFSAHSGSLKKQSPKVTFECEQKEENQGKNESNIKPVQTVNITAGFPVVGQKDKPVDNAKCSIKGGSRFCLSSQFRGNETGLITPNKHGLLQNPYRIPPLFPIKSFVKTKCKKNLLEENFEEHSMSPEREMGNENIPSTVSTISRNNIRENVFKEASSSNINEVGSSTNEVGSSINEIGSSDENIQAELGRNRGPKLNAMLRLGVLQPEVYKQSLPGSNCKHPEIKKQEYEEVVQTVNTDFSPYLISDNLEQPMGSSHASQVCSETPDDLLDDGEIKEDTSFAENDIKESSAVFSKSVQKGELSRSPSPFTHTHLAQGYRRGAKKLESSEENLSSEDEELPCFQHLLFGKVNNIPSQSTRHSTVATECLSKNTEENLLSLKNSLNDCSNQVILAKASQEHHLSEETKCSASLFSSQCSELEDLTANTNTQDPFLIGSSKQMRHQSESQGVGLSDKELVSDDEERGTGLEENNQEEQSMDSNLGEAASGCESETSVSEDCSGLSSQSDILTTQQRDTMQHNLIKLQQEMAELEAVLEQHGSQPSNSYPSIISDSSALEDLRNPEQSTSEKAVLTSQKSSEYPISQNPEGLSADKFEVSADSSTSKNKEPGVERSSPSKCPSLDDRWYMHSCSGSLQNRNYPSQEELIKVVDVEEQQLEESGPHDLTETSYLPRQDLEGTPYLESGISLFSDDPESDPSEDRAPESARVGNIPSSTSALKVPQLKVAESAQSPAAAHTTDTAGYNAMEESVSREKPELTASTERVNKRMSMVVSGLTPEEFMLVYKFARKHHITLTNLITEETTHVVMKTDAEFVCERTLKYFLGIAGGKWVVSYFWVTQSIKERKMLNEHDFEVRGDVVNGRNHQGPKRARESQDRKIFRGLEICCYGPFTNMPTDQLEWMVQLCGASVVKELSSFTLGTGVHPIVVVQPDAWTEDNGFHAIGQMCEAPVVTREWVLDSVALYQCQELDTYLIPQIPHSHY
UniProt Q96FH0: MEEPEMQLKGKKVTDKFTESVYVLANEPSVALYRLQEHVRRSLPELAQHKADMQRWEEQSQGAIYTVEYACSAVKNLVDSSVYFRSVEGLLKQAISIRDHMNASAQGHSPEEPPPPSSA
UniProt O00499: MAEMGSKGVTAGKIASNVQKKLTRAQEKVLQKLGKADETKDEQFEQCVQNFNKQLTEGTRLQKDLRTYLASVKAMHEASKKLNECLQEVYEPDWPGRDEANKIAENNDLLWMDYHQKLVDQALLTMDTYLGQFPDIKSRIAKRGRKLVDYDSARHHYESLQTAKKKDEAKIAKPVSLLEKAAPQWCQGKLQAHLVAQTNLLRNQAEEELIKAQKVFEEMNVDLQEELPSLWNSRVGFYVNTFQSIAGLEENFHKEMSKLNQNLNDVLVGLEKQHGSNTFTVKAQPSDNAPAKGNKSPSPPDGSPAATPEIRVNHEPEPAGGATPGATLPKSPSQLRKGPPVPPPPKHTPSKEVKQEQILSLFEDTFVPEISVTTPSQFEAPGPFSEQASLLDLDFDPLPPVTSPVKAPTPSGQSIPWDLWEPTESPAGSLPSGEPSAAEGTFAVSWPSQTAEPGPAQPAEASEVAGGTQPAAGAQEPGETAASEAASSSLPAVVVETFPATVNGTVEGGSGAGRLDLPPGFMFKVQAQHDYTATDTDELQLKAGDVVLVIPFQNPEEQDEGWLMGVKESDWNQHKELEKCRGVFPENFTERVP
UniProt Q9NZS9: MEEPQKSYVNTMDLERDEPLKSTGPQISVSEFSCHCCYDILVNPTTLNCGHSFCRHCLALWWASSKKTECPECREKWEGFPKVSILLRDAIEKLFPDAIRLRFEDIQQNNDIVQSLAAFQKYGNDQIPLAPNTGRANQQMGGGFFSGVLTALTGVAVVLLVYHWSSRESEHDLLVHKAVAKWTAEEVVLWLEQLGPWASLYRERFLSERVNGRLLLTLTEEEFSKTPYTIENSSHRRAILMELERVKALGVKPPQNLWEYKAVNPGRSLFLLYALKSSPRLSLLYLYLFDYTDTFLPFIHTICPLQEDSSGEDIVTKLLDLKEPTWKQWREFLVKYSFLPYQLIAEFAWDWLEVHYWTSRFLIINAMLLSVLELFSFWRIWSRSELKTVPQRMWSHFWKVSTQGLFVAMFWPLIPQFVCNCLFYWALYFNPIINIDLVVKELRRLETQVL
UniProt Q13825: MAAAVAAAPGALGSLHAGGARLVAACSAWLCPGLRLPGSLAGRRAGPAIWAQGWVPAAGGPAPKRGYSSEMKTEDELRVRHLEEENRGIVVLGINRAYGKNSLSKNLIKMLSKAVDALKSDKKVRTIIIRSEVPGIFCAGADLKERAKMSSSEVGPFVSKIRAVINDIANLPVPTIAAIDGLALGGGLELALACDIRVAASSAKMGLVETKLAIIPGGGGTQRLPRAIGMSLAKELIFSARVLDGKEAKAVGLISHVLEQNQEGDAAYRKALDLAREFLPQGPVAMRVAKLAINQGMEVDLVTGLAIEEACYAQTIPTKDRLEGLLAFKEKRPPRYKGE
UniProt Q9HB09: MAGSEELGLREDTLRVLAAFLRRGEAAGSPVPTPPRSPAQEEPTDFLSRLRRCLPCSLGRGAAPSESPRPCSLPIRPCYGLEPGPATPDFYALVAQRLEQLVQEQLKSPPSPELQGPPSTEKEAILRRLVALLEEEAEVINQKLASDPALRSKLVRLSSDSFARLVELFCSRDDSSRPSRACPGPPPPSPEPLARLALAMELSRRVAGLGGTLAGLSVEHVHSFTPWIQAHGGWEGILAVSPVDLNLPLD
UniProt H3BUF6: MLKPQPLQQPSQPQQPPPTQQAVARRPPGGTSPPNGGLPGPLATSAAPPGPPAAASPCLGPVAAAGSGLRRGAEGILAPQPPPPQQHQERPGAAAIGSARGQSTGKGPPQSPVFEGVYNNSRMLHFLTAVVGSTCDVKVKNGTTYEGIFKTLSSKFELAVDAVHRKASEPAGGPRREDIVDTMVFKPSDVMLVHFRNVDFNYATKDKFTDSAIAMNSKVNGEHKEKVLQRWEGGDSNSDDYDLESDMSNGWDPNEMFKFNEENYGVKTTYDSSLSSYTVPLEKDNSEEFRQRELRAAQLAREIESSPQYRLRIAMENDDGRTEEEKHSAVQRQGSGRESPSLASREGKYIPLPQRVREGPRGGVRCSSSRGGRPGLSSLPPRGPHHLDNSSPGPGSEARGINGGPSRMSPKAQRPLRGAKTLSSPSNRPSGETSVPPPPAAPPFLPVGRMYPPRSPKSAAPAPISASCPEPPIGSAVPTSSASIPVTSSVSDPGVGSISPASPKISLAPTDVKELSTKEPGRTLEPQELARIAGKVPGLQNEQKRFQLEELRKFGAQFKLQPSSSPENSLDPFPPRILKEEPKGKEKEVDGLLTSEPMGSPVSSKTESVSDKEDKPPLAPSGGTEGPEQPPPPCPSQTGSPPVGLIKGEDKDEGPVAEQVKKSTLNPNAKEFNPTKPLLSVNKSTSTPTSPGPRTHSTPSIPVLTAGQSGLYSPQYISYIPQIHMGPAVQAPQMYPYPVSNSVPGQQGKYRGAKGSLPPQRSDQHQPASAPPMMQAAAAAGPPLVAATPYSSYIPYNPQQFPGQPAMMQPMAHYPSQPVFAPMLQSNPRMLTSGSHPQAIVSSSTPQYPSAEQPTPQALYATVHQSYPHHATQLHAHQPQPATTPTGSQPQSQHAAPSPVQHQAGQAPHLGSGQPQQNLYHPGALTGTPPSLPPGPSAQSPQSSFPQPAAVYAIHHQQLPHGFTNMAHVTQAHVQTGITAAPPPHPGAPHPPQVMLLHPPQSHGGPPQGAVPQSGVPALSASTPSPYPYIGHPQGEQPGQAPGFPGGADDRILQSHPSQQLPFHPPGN

Key:
Test in all cases: log2 fold change, soluble protein after heating vs DMSO (PISA); higher = thermal stabilisation; K562 cells, 10 uM, 30 min; active = over 0.2 and 3.5 SD of the protein, either way, in both replicates (recomputed)
[1] = compound: CC1=C(C=C(C=C1)NC(=O)C2=CC(=CC=C2)C(C)(C)C#N)NC3=CC4=C(C=C3)N=CN(C4=O)C
Summary of the method: (§1)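 K562 cells (2×10^6 cells/mL) were treated with 10 μM compound for 30 min, and aliquots were heated for 3 min over 48°C-58°C. Pooled aliquots were extracted in PBS with 0.5% NP-40 at 4°C, and the supernatant after 21,000xg for 90 min was measured by TMTpro 16plex LC-MS/MS with channel sums equalised. Reported thermal stability, relative to control samples and from duplicates, is a log2 fold change.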

[2] = compound: CCCCN(Cc1ccc(C(=O)NO)cc1)C(=O)Nc1ccccc1 [Nexturastat A]
Summary of the method: as §1

[3] = compound: CCCc1cc(C)[nH]c(=O)c1CNC(=O)c1cc(-c2ccnc(N3CCN(C)CC3)c2)cc2c1cnn2C(C)C
Summary of the method: as §1

[4] = compound: CCN(CC)Cc1ccc2cc(COC(=O)Nc3ccc(C(=O)NO)cc3)ccc2c1 [givinostat]
Summary of the method: as §1

[5] = compound: CCN(CCCOc1ccc2c(Nc3cc(CC(=O)Nc4cccc(F)c4)[nH]n3)ncnc2c1)CCOP(=O)(O)O [barasertib]
Summary of the method: as §1

[6] = compound: CC1=CC=C(C=C1)SC2=C3C=C(SC3=CN=C2)C(=O)N
Summary of the method: as §1

[7] = compound: CC1=NC(=CC=C1)C2=C(N=C(N2)C(C)(C)C)C3=CC4=NC=CN=C4C=C3
Summary of the method: as §1

[8] = compound: CCCS(=O)(=O)Nc1ccc(F)c(C(=O)c2c[nH]c3ncc(-c4ccc(Cl)cc4)cc23)c1F [vemurafenib]
Summary of the method: as §1

[9] = compound: CCCS(=O)(=O)Nc1ccc(F)c(C(=O)c2c[nH]c3ncc(Cl)cc23)c1F
Summary of the method: as §1

[10] = compound: CC1=C(C=C(C=C1)NC(=O)C2=CC(=CC=C2)N(C)C)NC(=O)C3=CC=C(C=C3)O
Summary of the method: as §1

Measured: log2 fold change

BCL7C isoform 2 (UniProt Q8WUZ0)
inactive: [1] 0.066 | [2] 0.122 | [3] -0.078 | [4] -0.021 | [5] -0.022

BRAF (UniProt P15056)
inactive: [1] 0.15 | [6] 0.02 | [7] -0.01 | [2] -0.053 | [8] 0.148 | [9] 0.144 | [3] -0.049 | [4] -0.031 | [5] 0.022

B4GALT4 (UniProt O60513)
inactive: [1] -0.007 | [10] 0.012 | [5] -0.089

BDH2 (UniProt Q9BUT1)
inactive: [1] -0.051 | [10] -0.085 | [6] 0.086 | [7] 0.016 | [9] -0.077 | [3] -0.019 | [4] -0.033 | [5] -0.019
active: [8] 0.447

AURKAIP1 (UniProt Q9NWT8)
inactive: [1] -0.06 | [10] -0.039 | [2] 0.315 | [8] -0.099 | [3] 0.082 | [4] -0.018

BRD4 (UniProt O60885)
active: [2] -0.451
inactive: [1] 0.245 | [10] -0.272 | [6] 0.071 | [8] 0.046 | [9] -0.003 | [3] 0.017 | [4] -0.252 | [5] 0.021

ATRN (UniProt O75882)
inactive: [1] 0.037 | [6] -0.034 | [7] -0.061 | [2] -0.135 | [8] -0.026 | [9] 0.054 | [3] -0.003 | [4] 0.026 | [5] -0.09

Retrieved one by one from the list above (two):
B4GALT4 (UniProt O60513)
inactive: [1] -0.007 | [10] 0.012 | [5] -0.089

BDH2 (UniProt Q9BUT1)
inactive: [1] -0.051 | [10] -0.085 | [6] 0.086 | [7] 0.016 | [9] -0.077 | [3] -0.019 | [4] -0.033 | [5] -0.019
active: [8] 0.447

(listing goes on)

BET1L (UniProt Q9NYM9)
inactive: [1] 0.034 | [10] -0.023 | [6] 0.032 | [2] 0.115 | [8] 0.049 | [9] -0.093 | [3] -0.021 | [4] -0.081

BORA (UniProt Q6PGQ7)
inactive: [1] -0.281 | [2] 0.425 | [5] -0.014

BIRC5 (UniProt O15392)
inactive: [1] -0.057 | [10] -0.04 | [6] 0.078 | [7] 0.04 | [2] 0.008 | [8] -0.024 | [9] 0.034 | [4] -0.054 | [5] -0.014

ATXN2 (UniProt F8W0B5)
inactive: [1] 0.105 | [10] -0.079 | [3] -0.137 | [4] 0.041

BRCA1 isoform 7 (UniProt P38398)
inactive: [1] -0.32 | [10] -0.041 | [6] -0.191 | [7] -0.163 | [8] 0.27 | [9] -0.194 | [3] 0.064 | [4] 0.379

BBC3 (UniProt Q9BXH1)
inactive: [10] -0.11 | [6] 0.006 | [7] -0.054 | [2] 0.025 | [8] 0.044 | [9] -0.037 | [3] -0.063 | [4] -0.065 | [5] -0.005

BRMS1 (UniProt Q9HCU9)
active: [2] 0.512
inactive: [3] 0.137

AXIN1 (UniProt O15169)
inactive: [8] 0.125

BCAS3 isoform 8 (UniProt Q9H6U6)
inactive: [6] 0.021 | [7] 0.011 | [9] 0.028 | [4] 0.114

BORCS7 (UniProt Q96B45)
inactive: [6] -0.002 | [7] 0.022 | [8] -0.14 | [9] -0.003 | [3] 0.005 | [4] -0.014 | [5] -0.139

BORCS8 (UniProt Q96FH0)
inactive: [10] -0.026

BCS1L, A0A2R8Y7T3
inactive: [5] 0.068

ATXN7L2 (UniProt Q5T6C5)
inactive: [2] -0.065

BSCL2 isoform 4 (UniProt Q96G97)
inactive: [6] -0.073 | [2] -0.174 | [8] 0.179 | [9] -0.043 | [3] -0.124 | [4] 0.052 | [5] 0.199

BCL7B (UniProt Q9BQE9)
inactive: [7] -0.027 | [8] -0.047 | [3] 0.128

BCL7C (UniProt Q8WUZ0)
inactive: [3] 0.075

BRI3 (UniProt O95415)
inactive: [5] -0.091

BPNT1 (UniProt A6NF51)
inactive: [10] 0.126 | [7] 0.068 | [2] 0.016 | [8] 0.001 | [3] -0.025 | [4] 0.214 | [5] -0.616

AVEN (UniProt Q9NQS1)
inactive: [6] -0.033 | [2] -0.023 | [8] 0.037 | [9] -0.004 | [4] -0.047 | [5] 0.004

BCDIN3D (UniProt Q7Z5W3)
inactive: [5] 0.111

BNIP2 (UniProt H7C096)
inactive: [3] -0.027 | [4] 0.174 | [5] 0.062

B3GALT6 (UniProt Q96L58)
inactive: [10] 0.029 | [7] -0.06 | [4] 0.032

BMP1 (UniProt P13497)
inactive: [4] -0.043 | [5] 0.027

BIN1 (UniProt O00499)
inactive: [8] -0.049 | [3] 0.105

AZIN1 (UniProt O14977)
inactive: [10] 0.003

BAP18 isoform 3 (UniProt Q8IXM2)
inactive: [3] 0.005 | [4] 0.025

BFAR (UniProt Q9NZS9)
inactive: [6] 0.044 | [2] 0.025 | [8] -0.025 | [9] 0.283 | [3] -0.049

BNIP3L (UniProt O60238)
inactive: [10] 0.177 | [7] 0.04 | [8] -0.013 | [3] -0.053 | [4] 0.06

BRAF, A0A2R8Y8E0
active: [10] -1.03
inactive: [7] -0.021 | [3] -0.078 | [4] -0.006

ATXN3 isoform 1 (UniProt P54252)
inactive: [10] -0.08 | [6] 0.012 | [7] -0.043 | [8] 0.005 | [9] 0.04 | [3] -0.016 | [4] 0.02 | [5] 0.179

AURKB isoform 5 (UniProt Q96GD4)
inactive: [8] 0.157

BOD1 (UniProt Q96IK1)
inactive: [10] -0.15 | [3] 0.052 | [4] -0.037

Reprinted from above (2 entries):
AURKB isoform 5 (UniProt Q96GD4)
inactive: [8] 0.157

BOD1 (UniProt Q96IK1)
inactive: [10] -0.15 | [3] 0.052 | [4] -0.037

Additional entries.

BLVRA (UniProt C9J1E1)
inactive: [6] -0.149 | [7] 0.095 | [8] -0.123 | [9] -0.26 | [3] -0.293 | [4] -0.076 | [5] 0.009

BAHD1 (UniProt Q8TBE0)
inactive: [6] 0 | [9] -0.013 | [3] -0.174 | [4] 0.072

B4GAT1 (UniProt O43505)
inactive: [10] -0.004 | [6] -0.028 | [7] 0.07 | [2] 0.032 | [8] -0.069 | [9] -0.046 | [4] -0.018 | [5] -0.03

AUH (UniProt Q13825)
inactive: [10] -0.007 | [6] -0.107 | [7] 0.082 | [8] 0.091 | [9] 0.008 | [3] -0.185 | [4] 0.279 | [5] 0.096

BCL2L12 (UniProt Q9HB09)
inactive: [10] -0.115 | [6] 0.1 | [2] -0.031 | [8] 0.031 | [9] 0.07 | [3] 0.005 | [4] 0.051 | [5] 0.052

ATXN2L (UniProt H3BUF6)
inactive: [10] 0.008 | [6] -0.171 | [7] 0.018 | [9] 0.109 | [3] -0.002 | [5] -0.081
